Results from article doi:10.1101/2022.07.02.497654.
These are yes or no findings as the source states them, for the method shown. Binding seen in cells or lysates may run through a third protein. Some entries that bind do so weakly or less than the wild type. Values belong to the substance of their own block, whether it stands above or below them.

Sequences of proteins named here, by UniProt entry; tags and fusion partners are left off. A change or cut given only in a name is not applied to a line headed by its entry.
UniProt Q15910: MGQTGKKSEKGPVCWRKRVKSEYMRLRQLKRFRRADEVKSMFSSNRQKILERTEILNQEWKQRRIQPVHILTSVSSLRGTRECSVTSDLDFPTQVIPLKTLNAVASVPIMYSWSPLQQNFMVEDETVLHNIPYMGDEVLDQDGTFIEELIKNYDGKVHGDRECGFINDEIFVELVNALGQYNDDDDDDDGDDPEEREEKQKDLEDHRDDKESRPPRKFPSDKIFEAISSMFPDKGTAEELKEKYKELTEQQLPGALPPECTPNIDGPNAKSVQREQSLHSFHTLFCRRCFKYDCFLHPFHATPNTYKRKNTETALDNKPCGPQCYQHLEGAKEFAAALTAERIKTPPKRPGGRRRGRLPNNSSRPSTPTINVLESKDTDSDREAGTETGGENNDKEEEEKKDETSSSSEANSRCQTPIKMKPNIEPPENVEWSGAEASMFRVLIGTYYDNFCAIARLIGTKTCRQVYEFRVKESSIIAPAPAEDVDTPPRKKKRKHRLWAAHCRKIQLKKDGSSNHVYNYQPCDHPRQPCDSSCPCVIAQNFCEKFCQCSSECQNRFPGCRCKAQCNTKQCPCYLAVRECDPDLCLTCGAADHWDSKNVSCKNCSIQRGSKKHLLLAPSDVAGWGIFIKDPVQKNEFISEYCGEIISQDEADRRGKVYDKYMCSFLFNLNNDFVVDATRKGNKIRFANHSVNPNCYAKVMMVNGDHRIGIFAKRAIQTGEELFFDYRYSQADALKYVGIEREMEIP
UniProt Q15022: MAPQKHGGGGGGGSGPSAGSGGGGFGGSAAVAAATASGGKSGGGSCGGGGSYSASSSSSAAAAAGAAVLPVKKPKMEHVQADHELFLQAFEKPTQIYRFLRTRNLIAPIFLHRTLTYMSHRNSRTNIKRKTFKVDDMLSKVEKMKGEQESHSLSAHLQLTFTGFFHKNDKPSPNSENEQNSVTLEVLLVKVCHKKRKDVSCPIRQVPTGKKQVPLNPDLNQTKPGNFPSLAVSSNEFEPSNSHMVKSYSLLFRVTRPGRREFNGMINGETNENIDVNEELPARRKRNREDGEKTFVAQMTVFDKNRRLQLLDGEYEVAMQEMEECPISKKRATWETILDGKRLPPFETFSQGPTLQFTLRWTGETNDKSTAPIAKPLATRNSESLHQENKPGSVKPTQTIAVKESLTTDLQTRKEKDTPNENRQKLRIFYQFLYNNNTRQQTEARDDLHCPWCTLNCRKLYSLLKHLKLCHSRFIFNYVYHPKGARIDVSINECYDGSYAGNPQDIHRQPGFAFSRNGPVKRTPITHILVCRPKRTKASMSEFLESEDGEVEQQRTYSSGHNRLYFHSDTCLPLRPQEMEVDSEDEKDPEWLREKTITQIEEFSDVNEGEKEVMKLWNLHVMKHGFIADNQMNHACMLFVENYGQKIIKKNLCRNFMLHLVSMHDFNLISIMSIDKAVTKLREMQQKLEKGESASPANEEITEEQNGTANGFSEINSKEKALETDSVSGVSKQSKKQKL
UniProt Q13285: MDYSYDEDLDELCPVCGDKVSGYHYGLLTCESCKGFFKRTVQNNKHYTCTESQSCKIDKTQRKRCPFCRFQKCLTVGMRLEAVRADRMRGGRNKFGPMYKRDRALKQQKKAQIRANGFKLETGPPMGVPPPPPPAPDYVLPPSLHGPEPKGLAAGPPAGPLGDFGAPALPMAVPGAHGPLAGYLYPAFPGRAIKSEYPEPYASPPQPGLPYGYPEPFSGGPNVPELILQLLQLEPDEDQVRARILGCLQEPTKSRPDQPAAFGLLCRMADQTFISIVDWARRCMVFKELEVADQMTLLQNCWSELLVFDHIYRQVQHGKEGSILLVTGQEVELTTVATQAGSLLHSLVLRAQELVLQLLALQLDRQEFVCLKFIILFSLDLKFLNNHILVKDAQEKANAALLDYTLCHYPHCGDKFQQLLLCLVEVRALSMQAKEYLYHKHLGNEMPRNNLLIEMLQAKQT
UniProt Q61188: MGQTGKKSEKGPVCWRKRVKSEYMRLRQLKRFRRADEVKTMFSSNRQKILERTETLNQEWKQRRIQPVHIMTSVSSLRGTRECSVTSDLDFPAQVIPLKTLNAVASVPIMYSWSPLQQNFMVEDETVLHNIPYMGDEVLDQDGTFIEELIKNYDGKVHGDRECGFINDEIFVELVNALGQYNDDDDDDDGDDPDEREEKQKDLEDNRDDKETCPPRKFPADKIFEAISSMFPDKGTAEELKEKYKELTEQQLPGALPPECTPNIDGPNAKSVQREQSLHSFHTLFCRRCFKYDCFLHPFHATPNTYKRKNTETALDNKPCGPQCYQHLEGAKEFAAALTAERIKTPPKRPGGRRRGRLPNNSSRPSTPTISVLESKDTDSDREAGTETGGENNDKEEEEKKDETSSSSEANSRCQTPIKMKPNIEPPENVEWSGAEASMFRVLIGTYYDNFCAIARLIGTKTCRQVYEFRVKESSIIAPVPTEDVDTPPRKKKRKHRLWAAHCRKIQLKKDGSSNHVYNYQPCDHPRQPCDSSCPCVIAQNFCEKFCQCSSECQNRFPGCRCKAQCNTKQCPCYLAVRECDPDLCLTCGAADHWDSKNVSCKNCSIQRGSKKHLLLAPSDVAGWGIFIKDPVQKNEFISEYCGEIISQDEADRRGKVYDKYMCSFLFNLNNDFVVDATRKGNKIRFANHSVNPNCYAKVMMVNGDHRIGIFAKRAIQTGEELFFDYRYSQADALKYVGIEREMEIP
UniProt P33242: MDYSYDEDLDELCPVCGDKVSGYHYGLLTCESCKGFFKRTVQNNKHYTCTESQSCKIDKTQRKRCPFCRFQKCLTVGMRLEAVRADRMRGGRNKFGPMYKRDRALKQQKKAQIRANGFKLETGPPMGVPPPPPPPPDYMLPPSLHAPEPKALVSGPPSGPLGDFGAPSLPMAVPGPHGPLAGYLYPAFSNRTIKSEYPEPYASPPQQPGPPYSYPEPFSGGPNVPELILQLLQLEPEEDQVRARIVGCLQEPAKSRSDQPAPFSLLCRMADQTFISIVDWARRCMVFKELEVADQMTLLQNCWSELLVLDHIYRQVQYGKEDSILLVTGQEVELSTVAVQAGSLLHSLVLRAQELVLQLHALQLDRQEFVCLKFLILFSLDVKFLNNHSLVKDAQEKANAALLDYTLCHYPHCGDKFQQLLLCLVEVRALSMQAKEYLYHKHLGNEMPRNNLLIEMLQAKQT
UniProt P35222: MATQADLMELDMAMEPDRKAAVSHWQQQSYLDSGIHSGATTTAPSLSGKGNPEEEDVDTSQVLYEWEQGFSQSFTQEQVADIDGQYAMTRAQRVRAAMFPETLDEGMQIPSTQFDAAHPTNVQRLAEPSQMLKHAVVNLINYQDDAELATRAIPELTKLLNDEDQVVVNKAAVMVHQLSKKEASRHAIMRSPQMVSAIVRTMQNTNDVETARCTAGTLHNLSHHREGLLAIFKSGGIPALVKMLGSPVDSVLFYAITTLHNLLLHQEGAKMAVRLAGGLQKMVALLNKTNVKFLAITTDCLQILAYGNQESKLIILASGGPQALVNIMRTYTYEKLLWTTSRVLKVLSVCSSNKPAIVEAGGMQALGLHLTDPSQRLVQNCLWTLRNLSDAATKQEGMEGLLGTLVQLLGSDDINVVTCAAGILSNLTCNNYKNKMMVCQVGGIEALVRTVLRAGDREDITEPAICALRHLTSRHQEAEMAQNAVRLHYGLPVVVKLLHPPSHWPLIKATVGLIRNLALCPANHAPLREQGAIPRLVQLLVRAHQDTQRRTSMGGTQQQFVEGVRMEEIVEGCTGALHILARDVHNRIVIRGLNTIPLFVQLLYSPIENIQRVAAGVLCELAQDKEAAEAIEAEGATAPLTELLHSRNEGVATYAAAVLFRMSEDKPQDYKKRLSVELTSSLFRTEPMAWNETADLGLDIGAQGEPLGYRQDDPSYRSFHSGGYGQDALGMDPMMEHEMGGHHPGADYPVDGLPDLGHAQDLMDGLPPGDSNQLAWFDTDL
UniProt Q02248: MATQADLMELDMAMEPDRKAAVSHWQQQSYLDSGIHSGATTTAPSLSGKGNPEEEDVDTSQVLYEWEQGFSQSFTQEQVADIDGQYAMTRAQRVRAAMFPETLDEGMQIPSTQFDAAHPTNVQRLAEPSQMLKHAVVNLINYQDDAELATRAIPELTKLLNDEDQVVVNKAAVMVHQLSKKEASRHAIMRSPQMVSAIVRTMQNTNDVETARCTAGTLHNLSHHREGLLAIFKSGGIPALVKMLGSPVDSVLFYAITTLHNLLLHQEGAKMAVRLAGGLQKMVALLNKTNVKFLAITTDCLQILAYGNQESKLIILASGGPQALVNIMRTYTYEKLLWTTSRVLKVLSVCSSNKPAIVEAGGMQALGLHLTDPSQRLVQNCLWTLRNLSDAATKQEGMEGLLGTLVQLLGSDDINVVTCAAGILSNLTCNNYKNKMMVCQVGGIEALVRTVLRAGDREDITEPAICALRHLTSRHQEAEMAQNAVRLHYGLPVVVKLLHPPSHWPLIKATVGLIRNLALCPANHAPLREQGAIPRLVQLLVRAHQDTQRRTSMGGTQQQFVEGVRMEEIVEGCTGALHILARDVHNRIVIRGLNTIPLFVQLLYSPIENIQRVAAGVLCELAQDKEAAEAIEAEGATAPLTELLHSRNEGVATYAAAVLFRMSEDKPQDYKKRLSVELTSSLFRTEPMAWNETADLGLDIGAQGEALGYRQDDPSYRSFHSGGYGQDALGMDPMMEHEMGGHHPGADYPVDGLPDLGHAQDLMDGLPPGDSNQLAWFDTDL

How the values were obtained:
[1] = molecular target: EZH2 (human (endogenous in NCI-H295R and in human adrenal tissue)) (UniProt Q15910); experiment: co-IP
[2] = molecular target: SUZ12 (human (endogenous in NCI-H295R)) (UniProt Q15022); experiment: co-IP
[3] = molecular target: EZH2 (human (endogenous in NCI-H295R and in human adrenal tissue)) (UniProt Q15910); experiment: proximity ligation
[4] = molecular target: SF1 (NR5A1) (human (endogenous in NCI-H295R and in human adrenal tissue)) (UniProt Q13285); experiment: proximity ligation
[5] = molecular target: EZH2 (mouse) (mouse (endogenous in mouse adrenal)) (UniProt Q61188); experiment: proximity ligation
[6] = molecular target: SF1 (mouse) (mouse (endogenous in mouse adrenal)) (UniProt P33242); experiment: proximity ligation

- binding [1]: binds
- binding [2]: no binding
Substance: p.S45P β-catenin (from UniProt P35222 1-781)

- binding [3]: binds
- binding [4]: binds
Substance: β-catenin (human adrenal tissue) (from UniProt P35222 1-781)

- binding [5]: binds
- binding [6]: binds
Substance: β-catenin (mouse) (from UniProt Q02248 1-781)
